# Reference: publication PMC7819943, “Rice protein-binding microarrays: a tool to detect cis-acting elements near promoter regions in rice”
# By UniProt entry, the sequences of proteins in these tests, tags left out.
# UniProt Q0JBA9, entry or part of it: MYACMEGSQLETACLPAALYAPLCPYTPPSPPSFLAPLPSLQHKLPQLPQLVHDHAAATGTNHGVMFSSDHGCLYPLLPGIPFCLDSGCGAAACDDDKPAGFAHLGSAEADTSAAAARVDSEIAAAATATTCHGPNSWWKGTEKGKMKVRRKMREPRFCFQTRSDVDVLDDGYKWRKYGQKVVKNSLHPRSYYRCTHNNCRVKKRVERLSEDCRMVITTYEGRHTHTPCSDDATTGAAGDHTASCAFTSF
# Some of the results follow.
# Target: OsWRKY34 (Oryza sativa, UniProt Q0JBA9 1-250)
# Assay: protein-binding microarray (RPBM); PBS, 2% BSA, 51.3 ng/ul salmon testes DNA, 50 uM zinc acetate, 200 nM TF, 25 C, 1 h; high values mean tight binding
# Conditions: protein: recombinant; tags: N-terminal polyhistidine and DsRed monomer fusion (pET32a); label: CyDye5-dUTP incorporated in the synthesized complementary strand; 3' TTTTT single-stranded linker to array surface; dsDNA, one strand shown
# Method in brief: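 Binding signal is defined as the fluorescence intensity of each feature in arbitrary units, read on an Axon 4000B scanner. Transcription factors with N-terminal polyhistidine and DsRed fusions came from E. coli BL21-CodonPlus and were purified on Ni–NTA. They were incubated at 200 nM for 1 h at 25 °C on a custom Agilent array that had been made double-stranded with Cy5-dUTP, with 50 µM zinc acetate present, and the array was washed.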
row,Sequence,binding signal
1,GCGCGCTCCAATGTCGCCACGCTGTGGCGCCCTCGTGTCGCGGAGTCACCTAGTGCAG,8200 fluorescence intensity (a.u.)
2,AGTCCACACACACACTTCTTGCACATCCGGTACTTGTCAACGGAGTCACCTAGTGCAG,13400 fluorescence intensity (a.u.)
3,AGTAGGATCCATTTGTCATATATATATATATTTTATTAAACGGAGTCACCTAGTGCAG,10300 fluorescence intensity (a.u.)
4,GCGCTGCACCACTCGCCGCTTTACCCGCCGTTCTCCTCCTCGGAGTCACCTAGTGCAG,14300 fluorescence intensity (a.u.)
5,GTCTCCCGGTGAGGAGCCCCACGCTCCATCAATGTATTTTCGGAGTCACCTAGTGCAG,8230 fluorescence intensity (a.u.)
6,GTTTCAAGTAATTTCATGGGTCTTTTGTTTTTTGAGACAGCGGAGTCACCTAGTGCAG,9110 fluorescence intensity (a.u.)
7,GTTTGGTATTGGATTCGTCTTGTTTTGGGCATTTCTTGCTCGGAGTCACCTAGTGCAG,11200 fluorescence intensity (a.u.)
8,GCTTCCGACGTGCTTCTGCCATTCATTACACCATGTTTCTCGGAGTCACCTAGTGCAG,15700 fluorescence intensity (a.u.)
9,TTGGCGCCAAGTTATCTGCTTGCCGCGCGCCATTTCTCTCCGGAGTCACCTAGTGCAG,8850 fluorescence intensity (a.u.)
10,GGGTGTTGCCGTGTTTTCTATTTTCCCAGTGGGTTCTTCACGGAGTCACCTAGTGCAG,8360 fluorescence intensity (a.u.)
11,GCTTATTTCCTTCACAGGGCTGAGTGGCTCTATGCATTTTCGGAGTCACCTAGTGCAG,9080 fluorescence intensity (a.u.)
12,ATAGACTTTTTCCTTGTGAATTACGGGCCCCACCTGTCAACGGAGTCACCTAGTGCAG,8480 fluorescence intensity (a.u.)
13,CTTCCTCCTCCGTTGGGGTTGCGGGTGAGGAGAGAGACGACGGAGTCACCTAGTGCAG,9250 fluorescence intensity (a.u.)
14,CCCACCAGCCGCCGCCACCTCGGCCAATGCGCCGCCGCGCCGGAGTCACCTAGTGCAG,8050 fluorescence intensity (a.u.)
15,GATAAAATATGCTTTTCATCCGGCCCAAGCTTCATTGACACGGAGTCACCTAGTGCAG,8030 fluorescence intensity (a.u.)
16,TGCACAAACTAACAAGCGCATGTACCATCCTTTTTATTCTCGGAGTCACCTAGTGCAG,9360 fluorescence intensity (a.u.)
17,TTCCCGGATGCACGCCAATCCACCGGACAGTCAATTCAATCGGAGTCACCTAGTGCAG,8950 fluorescence intensity (a.u.)
18,TGAGTTTGTTCTGACCCGATTCGCCACTAGGCACCAGTATCGGAGTCACCTAGTGCAG,9200 fluorescence intensity (a.u.)
19,AGCCATTTTATCCATACTATCTTTCTACTAGGTTCTGTTGCGGAGTCACCTAGTGCAG,9400 fluorescence intensity (a.u.)
20,TCCCATGTAGTACCGCGCCACCACACAATCTTGCCCTGTTCGGAGTCACCTAGTGCAG,10200 fluorescence intensity (a.u.)
21,CTAACGGTCCACGACTGTTTGACCGAACCGCCAGTACAACCGGAGTCACCTAGTGCAG,10500 fluorescence intensity (a.u.)

# Taken from above:
# binding signal with ATAGACTTTTTCCTTGTGAATTACGGGCCCCACCTGTCAACGGAGTCACCTAGTGCAG is entered as 8480 fluorescence intensity (a.u.)
# binding signal with AGTAGGATCCATTTGTCATATATATATATATTTTATTAAACGGAGTCACCTAGTGCAG is entered as 10300 fluorescence intensity (a.u.)
# binding signal with GTTTGGTATTGGATTCGTCTTGTTTTGGGCATTTCTTGCTCGGAGTCACCTAGTGCAG is entered as 11200 fluorescence intensity (a.u.)

# Continued:

row,Sequence,binding signal
1,TGCCTCGCCCTCGCTCTCCTCGTTTCACACTTCTCCGCTCCGGAGTCACCTAGTGCAG,8820 fluorescence intensity (a.u.)
2,ATTGGTTGGTTTAGCTCAAGTGTTTTGCATATGCAAGTCTCGGAGTCACCTAGTGCAG,10900 fluorescence intensity (a.u.)
3,CCAGTTTGTATCTCATGTATTGGGCCTCGAAATCTGGTATCGGAGTCACCTAGTGCAG,12200 fluorescence intensity (a.u.)
4,CTTGTCCCGTATCCGCGCCCCGCGTTCGCATCGATCGATCCGGAGTCACCTAGTGCAG,12200 fluorescence intensity (a.u.)
5,CGTGTCCAGCTATATATTCAGTGTTTCGACAATTTCGTCTCGGAGTCACCTAGTGCAG,8990 fluorescence intensity (a.u.)
6,TCCTACGCATCCTCTCCTATCTCCATCCACGGCGAGCACTCGGAGTCACCTAGTGCAG,8220 fluorescence intensity (a.u.)
7,AAGTCTATTTTGCTTTCTCAACTCTTGCTCTTGAGTGAATCGGAGTCACCTAGTGCAG,9910 fluorescence intensity (a.u.)
8,CTCCGCCGCCACGCTCGCCCGCTGTTTGCTCCGTCCGCAGCGGAGTCACCTAGTGCAG,8350 fluorescence intensity (a.u.)
9,CACACCTAGGCCGCCTTTTTCAACCGGGGAGCACACCTTTCGGAGTCACCTAGTGCAG,10400 fluorescence intensity (a.u.)
10,ACTTCTTTAGGCGTTGACTTCTCCCTTTTCCTTTACTATTCGGAGTCACCTAGTGCAG,14800 fluorescence intensity (a.u.)
11,TACCGCCGCCGCCGCCGCTGCCCTTGCCGCTATTTCCTCCCGGAGTCACCTAGTGCAG,8240 fluorescence intensity (a.u.)
12,CTTTTCGCATGCATCTTTCGGCCGCGCTCGCGAGCGCACACGGAGTCACCTAGTGCAG,10400 fluorescence intensity (a.u.)
13,GCCTCGCACCACCCTGCGCCTTGCTTGCGCCCGCACGCGCCGGAGTCACCTAGTGCAG,10400 fluorescence intensity (a.u.)
14,ATCTGGTTTTGCGGTTGGGAGATGATTTTGTAATTCGATGCGGAGTCACCTAGTGCAG,10500 fluorescence intensity (a.u.)
15,GCGTGTTCCTCCTCCTACCTATTCCCGGGCCCGCACGTCACGGAGTCACCTAGTGCAG,9040 fluorescence intensity (a.u.)
16,ACAGCAAACACATCACACATTAATCAATTCGCCTCCAGCACGGAGTCACCTAGTGCAG,8260 fluorescence intensity (a.u.)
17,GCCTTTTCGCTATATCTCCCATCTGGTGATTCAGGACTCACGGAGTCACCTAGTGCAG,9660 fluorescence intensity (a.u.)
18,CAACCTCAAGCCGAAGACCATATCATTGACCACATCTTGCCGGAGTCACCTAGTGCAG,10700 fluorescence intensity (a.u.)
19,CGCTCCGGCATTTCGTCAAACACCAGACGGGCCCATCTCCCGGAGTCACCTAGTGCAG,9120 fluorescence intensity (a.u.)
20,TTCCAAGGCCCAATCTTATGAGTCCCCGCGGCCCACCTAACGGAGTCACCTAGTGCAG,9680 fluorescence intensity (a.u.)
21,AAGAGTGGTGAGGAGATGCAAGTATGGATAGATTACGACCCGGAGTCACCTAGTGCAG,8340 fluorescence intensity (a.u.)
